Results as given in PubChem BioAssay AID743255 (National Center for Advancing Translational Sciences (NCATS), 2014).
Screen size: about 390,000 compounds; about 910 (0.23%) were called active. The shares of active, inactive and inconclusive entries below differ from those in the screen. Calls come from the whole dose curve; as a rule, active = well fitted inhibition curve with a large enough effect; inconclusive = small, poorly fitted or top-dose-only effect; inactive = no such curve, though single readings can be large or run the other way. A potency beside an inconclusive call is a rough fit, not a confirmed value.

Sequences of proteins named here, by UniProt entry; tags and fusion partners are left off. A change or cut given only in a name is not applied to a line headed by its entry.
UniProt O94782: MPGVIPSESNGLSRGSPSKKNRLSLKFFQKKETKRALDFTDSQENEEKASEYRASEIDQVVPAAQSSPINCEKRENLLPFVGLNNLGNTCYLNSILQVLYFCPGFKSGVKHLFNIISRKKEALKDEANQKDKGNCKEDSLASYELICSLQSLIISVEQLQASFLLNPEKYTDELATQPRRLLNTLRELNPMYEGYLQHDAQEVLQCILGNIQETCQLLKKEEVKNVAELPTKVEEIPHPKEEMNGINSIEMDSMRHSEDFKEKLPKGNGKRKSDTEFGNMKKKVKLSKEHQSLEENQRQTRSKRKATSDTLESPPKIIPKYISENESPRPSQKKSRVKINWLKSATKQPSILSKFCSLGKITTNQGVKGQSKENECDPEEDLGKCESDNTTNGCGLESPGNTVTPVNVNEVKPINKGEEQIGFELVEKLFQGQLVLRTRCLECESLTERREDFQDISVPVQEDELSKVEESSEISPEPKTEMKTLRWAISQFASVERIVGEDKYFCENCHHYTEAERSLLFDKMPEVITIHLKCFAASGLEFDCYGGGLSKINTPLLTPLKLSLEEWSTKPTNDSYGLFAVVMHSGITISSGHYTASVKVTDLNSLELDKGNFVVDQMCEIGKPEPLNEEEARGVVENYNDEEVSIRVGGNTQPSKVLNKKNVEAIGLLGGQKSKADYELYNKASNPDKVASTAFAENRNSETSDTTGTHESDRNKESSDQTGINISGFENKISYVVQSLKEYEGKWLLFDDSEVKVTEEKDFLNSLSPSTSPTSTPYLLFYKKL

Biological target: Ubiquitin carboxyl-terminal hydrolase 1 (Homo sapiens) (UniProt O94782)
Experiment: Inhibitors of USP1/UAF1: Primary Screen; note: nearly all actives have a fitted effect of over 60% in size
Conditions: recombinant USP1/UAF1, Ub-Rhodamine cleavage fluorescence; activity change, negative = inhibition: at 57.1 µM (top of the series)
Summary of the method: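 High-throughput fluorogenic screen: 1nM USP1/UAF1 complex, Ub-Rho substrate 150nM final, 50mM HEPES pH 7.8 with 0.5mM EDTA, 0.1 mg/ml BSA, 1mM TCEP and 0.01% Tween-20.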
% is set by controls: 0 for no effect and ±100 for the full control effect; potency is the fitted concentration of half-maximal effect.

Compound | Potency | activity change, negative = inhibition
O=C(CCCn1c(=S)[nH]c2cc3c(cc2c1=O)OCO3)N1CCN(c2ccc(Cl)cc2)CC1 | inconclusive: 56.2 µM [inhibitor, partial curve, poor fit] | –
COc1ccc(N2CC(NC(=O)c3ccc(S(=O)(=O)N4CCCC4)cc3)CC2=O)cc1 (stereo not given) | – | inactive: 8.45%
C[C@H](CO)N1C[C@H](C)[C@@H](CN(C)C(=O)Nc2ccccc2)Oc2c(NS(=O)(=O)c3cccs3)cccc2C1=O | inconclusive: 56.2 µM [inhibitor, partial curve, poor fit] | –
COC(=O)CCCC1=CC2=CC(=O)C(C)(OC(=O)c3cccs3)C(=O)C2=CN1CCc1c[nH]c2ccccc12 (stereo not given) | inconclusive: 31.6 µM [inhibitor, partial curve] | –
COc1ccccc1N(C(C)=O)C1=C(Cl)C(=O)c2ccccc2C1=O | active: 17.8 µM | –
Cc1cccc(C)c1NC(=O)c1cc(S(=O)(=O)N2CCc3ccccc32)cn1C | – | inactive: -8.82%
Cc1cccc(N2CC(C(=O)Nc3nnc(SCCN4CCOCC4)s3)CC2=O)c1 (stereo not given) | inconclusive: 44.7 µM [inhibitor, partial curve, poor fit] | –
Cc1ccc(CNC(=O)c2ccc(CSCc3ccc(Cl)cc3)o2)cc1 | – | inactive: -30.3%
O=[N+]([O-])c1ccc(N2CCN(Cc3ccccc3)CC2)c2c1no[n+]2[O-] | inconclusive: 2.82 µM [inhibitor, full curve, poor fit] | –
COc1cccc(/C=C2/C(=O)NN(c3ccc(C)c(C)c3)C2=O)c1 | – | inactive: -23%
COc1cc(/C=C(\C#N)c2nc3ccc(C)cc3[nH]2)cc([N+](=O)[O-])c1O | inconclusive: 31.6 µM [inhibitor, partial curve] | –
O=C(O)CSc1nnc(-c2cccc(S(=O)(=O)N3CCCCC3)c2)o1 | inconclusive: 56.2 µM [inhibitor, partial curve, poor fit] | –
C/C(N)=C(/C#N)C(=O)COC(=O)c1cc(C)n(-c2ccc(F)cc2)c1C | inactive | –
O=C(NNC(=O)c1cccc2ccccc12)c1ccc(F)cc1 | inconclusive: 7.08 µM [inhibitor, partial curve, poor fit] | –
O=C(Nc1ccc(Nc2ccccc2)cc1)c1ccco1 | – | inactive: -8.34%
N#Cc1c(=O)c2nc(NCCCO)ncc2n2c(=O)c3ccccc3[nH]c12 | inconclusive: 39.8 µM [inhibitor, partial curve, poor fit] | –
O=Cc1ccc(-c2ccccc2C(=O)O)o1 | inconclusive: 0.398 µM [inhibitor, full curve, poor fit] | –
CC(C)C[C@@H](CN)NC(=O)c1nc[nH]c1C(=O)N[C@@H](C)C(=O)CNC[C@H](C)NC(=O)c1nc[nH]c1C(=O)N[C@@H](C)C(=O)O | inconclusive: 158 µM [inhibitor, partial curve, poor fit] | –
CCN(CC)CCNC(=O)c1cn(CC)c2ccc(S(=O)(=O)N3CCc4ccccc4C3)cc2c1=O | inconclusive: 17.8 µM [inhibitor, partial curve, poor fit] | –
CCOC(=O)c1cc(-c2ccc(C)cc2)n(CCC(=O)NCCc2ccc(C)cc2)c1C | inconclusive: 3.16 µM [inhibitor, full curve] | –

Record cards, from the list above. Order of values: Potency	activity change, negative = inhibition
O=Cc1ccc(-c2ccccc2C(=O)O)o1 is listed with inconclusive: 0.398 µM [inhibitor, full curve, poor fit]	–
COC(=O)CCCC1=CC2=CC(=O)C(C)(OC(=O)c3cccs3)C(=O)C2=CN1CCc1c[nH]c2ccccc12 (stereo not given) is listed with inconclusive: 31.6 µM [inhibitor, partial curve]	–
COc1cccc(/C=C2/C(=O)NN(c3ccc(C)c(C)c3)C2=O)c1 is listed with –	inactive: -23%

(continued)

Compound | Potency | activity change, negative = inhibition
COc1cc(-c2cc3n(C)c(C)c(CCC(=O)NC4CCCCC4)c(=O)n3n2)cc(OC)c1OC | inconclusive: 44.7 µM [inhibitor, single point] | –
CCN(CC)CCN1C(=O)C2C(C(=O)Nc3cccc(C)c3)C3C=CC2(O3)C1C(=O)NC1CCCC(C)C1C (stereo not given) | inconclusive: 0.562 µM [inhibitor, full curve, poor fit] | –
O=C1NCCOC(=O)[C@H](Cc2ccc(F)cc2)C/C=C\C[C@@H]1CC(=O)N(CCO)Cc1ccccc1 | inconclusive: 1 µM [inhibitor, full curve, poor fit] | –
CNc1ccccc(C(=O)/C=C/c2ccccc2OC)c1=O | inconclusive: 35.5 µM [inhibitor, partial curve, poor fit] | –
CC1(C)Cc2nc(N)c(=O)sc2C1 | inconclusive: 0.251 µM [inhibitor, full curve] | –
COc1ccc(CCNC(=O)C2c3ccccc3C(=O)N2Cc2ccccc2)cc1OC (stereo not given) | inconclusive: 3.98 µM [inhibitor, full curve] | –
Nc1nc(N)c2cc(Sc3cccc(C(F)(F)F)c3)ccc2n1 | inconclusive: 20 µM [inhibitor, partial curve] | –
CCOc1ccc(CNC(=O)C2=Cc3cccc(OC)c3OC2)cc1 | inconclusive: 7.08 µM [inhibitor, partial curve, poor fit] | –
COc1ccccc1C(=O)COC(=O)c1cc(=O)[nH]c2ccccc12 | – | inactive: -10.3%
CCOc1ccc(Cn2c(CNS(=O)(=O)c3ccc(C(C)(C)C)cc3)nc3cccnc32)cc1 | – | inactive: -31.4%
CC(C)(C)c1ccc(NC(=O)N2CCCN(c3ccc([N+](=O)[O-])cn3)CC2)cc1 | – | inactive: -7.94%
Cn1c2ccccc2c(=O)c2cc(C#CC3(O)CCCCC3)ccc21 | inconclusive: 7.08 µM [inhibitor, partial curve] | –
Cc1c(CCCN)c2ccccc2n1Cc1ccccc1 | inconclusive: 31.6 µM [inhibitor, partial curve] | –
Cc1ccc2c(=O)c(C(=O)c3ccc(Cl)cc3)cn(CC(=O)Nc3ccc4c(c3)OCCO4)c2n1 | inconclusive: 50.1 µM [inhibitor, partial curve, poor fit] | –
Cc1ccc(C)c(S(=O)(=O)n2nc(C)c(S(=O)(=O)N3CCCCCC3)c2C)c1 | – | inactive: -20.6%
CCCOc1cccc(C(=O)NC(=S)Nc2cccc(C(F)(F)F)c2)c1 | – | inactive: -1.51%
COc1ccc(N=C2C=CC(=O)O2)cc1 | inconclusive: 2.24 µM [inhibitor, partial curve] | –
CC(=O)N(C1=C(N)C(=O)c2ccccc2C1=O)c1ccccc1 | inconclusive: 28.2 µM [inhibitor, partial curve] | –
N/C(=N\NC(=O)c1cccc(F)c1)c1cc2ccccc2oc1=O | inconclusive: 44.7 µM [inhibitor, partial curve] | –
CCOC(=O)/C=C/C(=O)Nc1ccccc1C(=O)NC1CCCCC1 | – | inactive: -6.29%
